PubChem BioAssay AID720505, Drosophila RNAi Screening Center | 2013

Screen: 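Fly regulators or components of the CRAC channel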 (primary screen)
Cell system: Drosophila S2R+ cells
Reagent: long dsRNA against Drosophila genes
Conditions: thapsigargin (2 µM) in calcium-free buffer to empty internal stores, then 2 mM calcium added back
Measurement: 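Fluo-4 signal in 384-well plates read on a FLIPR after thapsigargin (2 µM, calcium-free) store depletion and 2 mM calcium add-back; unnormalised mean endpoint per well; screen run twice, selected wells retested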
Reading the numbers: calcium signal and retest calcium signal: higher = more calcium entry after store depletion
Call rule: 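About 1500 genes called as lowering calcium entry, by varying amounts, judged against per-plate control wells with STIM1 as positive and Rho1 as negative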
Meaning of the calls: active = called as lowering calcium entry; inactive = not called
The deposit covers about 20,000 reagents; this is a random part of those that have a named target and a result. In the full data, about 2,100 (10%) are marked active. 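Raw plate signals without normalisation; calls rest on control-based scores that were not deposited; replicate 2 separates called from uncalled poorly.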 Names joined by + are all predicted targets of the reagent. The record does not give: the amount of reagent, the time to read-out.

gene knocked down | DRSC id | calcium signal, replicate 1 | calcium signal, replicate 2 | retest calcium signal, replicate 1 | retest calcium signal, replicate 2 | Outcome
CG31704 | DRSC22118 | 58.3 | 120 | – | – | active
CG4324 | DRSC04462 | 50.8 | 189 | – | – | active
CG9536 | DRSC03254 | 90.4 | 218 | – | – | inactive
beta4GalNAcTA | DRSC05944 | 109 | 158 | – | – | inactive
Miro | DRSC15795 | 124 | 243 | – | – | inactive
CG13077 | DRSC02181 | 61.1 | 167 | – | – | inactive
CG3448 | DRSC10368 | 87.9 | 93 | – | – | inactive
Cyp4e3 | DRSC03306 | 136 | 158 | – | – | inactive
CG18336 | DRSC06334 | 106 | 169 | – | – | inactive
Pglym87 | DRSC15252 | 119 | 123 | – | – | inactive
CG6454 | DRSC16044 | 206 | 213 | – | – | inactive
CG4882 | DRSC04495 | 116 | 239 | – | – | inactive
CG43316 | DRSC06297 | 99 | 174 | – | – | inactive
Indy | DRSC10393 | 99.7 | 122 | – | – | inactive
Tsp5D | DRSC18380 | 212 | 103 | – | – | inactive
CG17327 | DRSC15225 | 77.2 | 90.5 | – | – | inactive
dpr12 | DRSC04814 | 128 | 101 | – | – | inactive
dpr12 | DRSC04863 | 129 | 203 | – | – | inactive
dpr12 | DRSC04892 | 193 | 156 | – | – | inactive
CG11634 | DRSC03700 | 146 | 90.5 | – | – | inactive
CG5968 | DRSC02916 | 96 | 114 | – | – | inactive
CG14490 | DRSC06461 | 93.1 | 141 | – | – | inactive
Cdc27 | DRSC11112 | 47.7 | 67 | – | – | active
RpS14a | DRSC18710 | 53.7 | 116 | – | – | active
Tsp39D | DRSC03099 | 229 | 112 | – | – | inactive
shv | DRSC00640 | 90 | 116 | – | – | inactive
shv | DRSC22122 | 89.1 | 150 | – | – | inactive
Fit1 | DRSC08450 | 82.5 | 83 | – | – | inactive
CG12194 | DRSC00345 | 173 | 117 | – | – | inactive
CG10195 | DRSC02026 | 131 | 76.1 | – | – | inactive
Acsf3 | DRSC18146 | 69.1 | 161 | – | – | active
Jon25Bi | DRSC03434 | 149 | 99.6 | – | – | inactive
CG31418 | DRSC21780 | 129 | 103 | – | – | inactive
CG5087 | DRSC10479 | 133 | 82.3 | – | – | inactive
su(sable) | DRSC18839 | 92.4 | 127 | – | – | inactive
CG7298 | DRSC10802 | 86.5 | 80.5 | – | – | inactive
Set2 | DRSC19765 | 141 | 133 | – | – | inactive
glec | DRSC16958 | 251 | 182 | – | – | inactive
D19A | DRSC11133 | 84.9 | 105 | – | – | inactive
Drs | DRSC08657 | 72.6 | 99.5 | – | – | inactive
Fbw5 | DRSC03146 | 155 | 92.2 | – | – | inactive
neur + asRNA:CR31429 | DRSC17013 | 142 | 123 | – | – | inactive
CG1785 | DRSC18139 | 130 | 107 | – | – | inactive
dgt2 | DRSC02548 | 87.3 | 82.6 | – | – | inactive
Est-Q | DRSC11835 | 101 | 86.6 | – | – | inactive
Eip74EF | DRSC10613 | 98.9 | 89.3 | – | – | inactive
Eip74EF | DRSC11160 | 88.6 | 196 | – | – | inactive
CG32301 | DRSC08613 | 97.9 | 107 | – | – | inactive
mamo | DRSC19001 | 62.3 | 68.4 | – | – | active
mamo | DRSC19370 | 105 | 133 | – | – | inactive
mamo | DRSC19371 | 92.1 | 131 | – | – | inactive
mamo | DRSC19372 | 134 | 127 | 7096 | 96.8 | inactive
mamo | DRSC19373 | 109 | 123 | 7220 | 89.3 | inactive
mamo | DRSC23035 | 102 | 156 | – | – | inactive
Atac3 | DRSC08579 | 97 | 95.5 | – | – | inactive
wnd | DRSC11046 | 108 | 96.1 | – | – | inactive
wnd | DRSC21373 | 117 | 139 | – | – | inactive
